These are yes or no findings as the source states them, for the method shown.
Molecular target: FUS low-complexity domain (FUS LC, 1–163 amino acids) (human) (UniProt P35637)
Test: Brewster angle microscopy; 1.5 uM FUS LC in 20 mM CAPS pH 11, air/buffer interface, up to 6 h after addition; both purified

B1: FUS low-complexity domain (FUS LC, 1–163 amino acids) (domain or fragment, human, UniProt P35637 1-163, looked up)
chain: MASNDYTQQATQSYGAYPTQPGQGYSQQSSQPYGQQSYSGYSQSTDTSGYGQSSYSSYGQSQNTGYGTQSTPQGYGSTGGYGSSQSSQSSYGQQSSYPGYGQQPAPSSTSGSYGSSSQSSSYGQPQSGSYSQQPSYGGQQQSYGQQQSYNPPQGYGQQNQYNS
notes: Human FUS (fused in sarcoma), N-terminal QGSY-rich low-complexity domain, amino-acid residues 1-163; For FRAP 5% of the protein carried Cy3 (NHS ester); the AFM and BAM samples were unlabelled; also called fused in sarcoma low-complexity domain; wild-type FUS LC; source: E. coli, purified (solubilised in 8 M urea, Ni-NTA, cleaved with tobacco etch virus protease, exchanged to CAPS pH 11)
**Q.** How did the binding turn out when B1 was run?
**A.** no binding (condition: pH 11 (20 mM CAPS))

Source: article PMC10396963, “Fibril formation and ordering of disordered FUS LC driven by hydrophobic interactions” (Nature Chemistry, 2023)
